Measured values from the supplement of paper PMC12823440, “Inhibitors supercharge kinase turnover through native proteolytic circuits” (Nature, 2025).
Counter-ions that a name gives are not always drawn. This is one part of the list. The calls rarely recur for the same compound in another form.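 Kinases, fused to nanoluciferase, were expressed in K562 cells; luminescence was measured every 4 h from 2 to 18 h as percent of control (DMSO = 100%, positive control = 0%). A time point is decreased if signal falls significantly (2 sigma). Hits were called by the authors by a rule that is not shown; the count of time points alone does not decide it.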

Protein sequences, listed by entry. Tags and fused reporters are not part of them. Lines headed by an entry give the natural chain unless they say otherwise; changes in a name come on top.
UniProt Q8IWU2: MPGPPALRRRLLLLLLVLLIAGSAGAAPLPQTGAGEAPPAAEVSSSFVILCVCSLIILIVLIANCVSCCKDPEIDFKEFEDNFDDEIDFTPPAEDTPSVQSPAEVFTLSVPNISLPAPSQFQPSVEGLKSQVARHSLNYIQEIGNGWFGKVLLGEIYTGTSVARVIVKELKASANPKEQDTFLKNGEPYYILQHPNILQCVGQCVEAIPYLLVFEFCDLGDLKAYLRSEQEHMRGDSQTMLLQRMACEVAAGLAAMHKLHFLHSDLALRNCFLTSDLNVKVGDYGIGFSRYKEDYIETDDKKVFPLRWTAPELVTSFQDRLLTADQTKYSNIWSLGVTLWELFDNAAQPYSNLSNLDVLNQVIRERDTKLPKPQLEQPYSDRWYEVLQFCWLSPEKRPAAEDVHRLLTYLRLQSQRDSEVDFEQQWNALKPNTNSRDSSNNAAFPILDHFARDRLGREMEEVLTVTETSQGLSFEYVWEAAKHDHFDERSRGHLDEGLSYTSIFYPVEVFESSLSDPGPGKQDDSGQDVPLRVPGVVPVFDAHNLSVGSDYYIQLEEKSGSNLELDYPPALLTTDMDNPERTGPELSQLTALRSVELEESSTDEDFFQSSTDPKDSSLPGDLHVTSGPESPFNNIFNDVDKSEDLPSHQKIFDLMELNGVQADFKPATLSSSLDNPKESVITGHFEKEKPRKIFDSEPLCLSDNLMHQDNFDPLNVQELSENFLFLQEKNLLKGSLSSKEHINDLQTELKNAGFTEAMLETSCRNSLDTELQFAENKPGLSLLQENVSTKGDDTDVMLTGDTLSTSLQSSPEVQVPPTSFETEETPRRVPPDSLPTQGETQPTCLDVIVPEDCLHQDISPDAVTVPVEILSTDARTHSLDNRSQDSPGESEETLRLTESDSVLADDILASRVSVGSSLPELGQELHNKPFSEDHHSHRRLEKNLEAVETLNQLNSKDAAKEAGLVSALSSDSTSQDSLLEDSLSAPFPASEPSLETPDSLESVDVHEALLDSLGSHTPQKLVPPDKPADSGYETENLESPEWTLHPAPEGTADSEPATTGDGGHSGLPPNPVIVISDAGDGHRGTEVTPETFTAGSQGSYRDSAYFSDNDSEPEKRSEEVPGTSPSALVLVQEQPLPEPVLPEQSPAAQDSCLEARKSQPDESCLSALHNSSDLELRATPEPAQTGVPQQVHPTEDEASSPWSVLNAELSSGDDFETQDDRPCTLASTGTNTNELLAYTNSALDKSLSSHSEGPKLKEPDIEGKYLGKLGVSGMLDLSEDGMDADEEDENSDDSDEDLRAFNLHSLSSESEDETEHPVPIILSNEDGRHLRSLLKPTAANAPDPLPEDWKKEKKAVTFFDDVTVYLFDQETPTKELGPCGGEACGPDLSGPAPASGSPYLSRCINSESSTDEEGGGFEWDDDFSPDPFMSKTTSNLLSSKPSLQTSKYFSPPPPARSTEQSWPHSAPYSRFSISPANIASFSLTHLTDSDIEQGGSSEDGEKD
UniProt P07948: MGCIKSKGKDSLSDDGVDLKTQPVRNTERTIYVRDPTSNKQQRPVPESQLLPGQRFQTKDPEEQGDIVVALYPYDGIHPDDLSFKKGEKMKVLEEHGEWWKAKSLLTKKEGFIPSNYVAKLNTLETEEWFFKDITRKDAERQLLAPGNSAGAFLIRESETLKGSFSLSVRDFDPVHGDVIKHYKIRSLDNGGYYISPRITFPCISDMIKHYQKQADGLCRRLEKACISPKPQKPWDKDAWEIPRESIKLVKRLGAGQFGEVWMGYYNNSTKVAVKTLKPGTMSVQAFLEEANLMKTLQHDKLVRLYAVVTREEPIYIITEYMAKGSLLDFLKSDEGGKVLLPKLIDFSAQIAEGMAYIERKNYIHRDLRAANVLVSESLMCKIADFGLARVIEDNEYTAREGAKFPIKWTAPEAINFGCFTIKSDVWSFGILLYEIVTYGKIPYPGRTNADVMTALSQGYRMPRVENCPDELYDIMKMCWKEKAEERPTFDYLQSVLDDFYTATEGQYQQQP
UniProt Q12851: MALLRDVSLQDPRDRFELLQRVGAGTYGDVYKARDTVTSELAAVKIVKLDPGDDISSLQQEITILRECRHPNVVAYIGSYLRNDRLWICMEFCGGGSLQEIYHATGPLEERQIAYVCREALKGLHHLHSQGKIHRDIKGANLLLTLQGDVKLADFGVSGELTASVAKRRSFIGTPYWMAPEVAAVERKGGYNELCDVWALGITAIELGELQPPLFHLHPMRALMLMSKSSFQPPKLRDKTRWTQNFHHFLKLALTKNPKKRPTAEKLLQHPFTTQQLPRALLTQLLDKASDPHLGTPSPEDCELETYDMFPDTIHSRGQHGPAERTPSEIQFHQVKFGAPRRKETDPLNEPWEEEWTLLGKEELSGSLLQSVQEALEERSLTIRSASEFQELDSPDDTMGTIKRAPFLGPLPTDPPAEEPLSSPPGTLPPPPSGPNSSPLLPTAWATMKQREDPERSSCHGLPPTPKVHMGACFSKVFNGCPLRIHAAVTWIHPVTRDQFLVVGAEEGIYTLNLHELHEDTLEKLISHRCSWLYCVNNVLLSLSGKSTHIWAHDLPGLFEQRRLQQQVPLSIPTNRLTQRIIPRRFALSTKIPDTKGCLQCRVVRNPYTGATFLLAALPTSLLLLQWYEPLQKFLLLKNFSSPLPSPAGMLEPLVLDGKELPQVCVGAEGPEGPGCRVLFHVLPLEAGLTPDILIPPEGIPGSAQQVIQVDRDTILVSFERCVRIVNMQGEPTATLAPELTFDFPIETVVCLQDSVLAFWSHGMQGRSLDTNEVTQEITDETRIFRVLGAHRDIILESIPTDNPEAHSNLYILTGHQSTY
UniProt P28482, whole entry: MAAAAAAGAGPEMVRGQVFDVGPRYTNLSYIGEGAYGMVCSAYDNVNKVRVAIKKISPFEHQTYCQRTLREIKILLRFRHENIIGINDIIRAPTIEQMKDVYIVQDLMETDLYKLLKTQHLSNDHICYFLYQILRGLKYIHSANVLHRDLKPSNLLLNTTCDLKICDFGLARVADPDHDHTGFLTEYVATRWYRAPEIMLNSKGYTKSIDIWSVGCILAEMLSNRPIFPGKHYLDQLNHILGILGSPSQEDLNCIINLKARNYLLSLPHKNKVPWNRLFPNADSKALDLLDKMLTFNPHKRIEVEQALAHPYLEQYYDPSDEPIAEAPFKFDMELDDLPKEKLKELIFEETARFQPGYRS
UniProt P31152, whole entry: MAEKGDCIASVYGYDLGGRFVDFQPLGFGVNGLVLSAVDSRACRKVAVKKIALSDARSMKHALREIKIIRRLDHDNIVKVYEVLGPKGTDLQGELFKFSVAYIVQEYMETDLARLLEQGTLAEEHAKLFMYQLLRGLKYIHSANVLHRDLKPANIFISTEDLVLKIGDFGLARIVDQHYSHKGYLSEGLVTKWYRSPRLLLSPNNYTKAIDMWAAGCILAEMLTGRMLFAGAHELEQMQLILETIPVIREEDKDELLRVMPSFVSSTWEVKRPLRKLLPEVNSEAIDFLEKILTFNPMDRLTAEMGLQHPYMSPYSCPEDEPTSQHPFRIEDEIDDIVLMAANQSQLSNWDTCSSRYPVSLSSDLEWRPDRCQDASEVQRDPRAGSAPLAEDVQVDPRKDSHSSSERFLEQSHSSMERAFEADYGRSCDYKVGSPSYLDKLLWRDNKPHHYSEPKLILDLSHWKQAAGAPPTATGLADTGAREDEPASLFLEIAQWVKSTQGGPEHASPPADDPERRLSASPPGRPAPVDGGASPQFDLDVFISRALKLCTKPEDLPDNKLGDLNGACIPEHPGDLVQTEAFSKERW
UniProt P49137, whole entry, looked up: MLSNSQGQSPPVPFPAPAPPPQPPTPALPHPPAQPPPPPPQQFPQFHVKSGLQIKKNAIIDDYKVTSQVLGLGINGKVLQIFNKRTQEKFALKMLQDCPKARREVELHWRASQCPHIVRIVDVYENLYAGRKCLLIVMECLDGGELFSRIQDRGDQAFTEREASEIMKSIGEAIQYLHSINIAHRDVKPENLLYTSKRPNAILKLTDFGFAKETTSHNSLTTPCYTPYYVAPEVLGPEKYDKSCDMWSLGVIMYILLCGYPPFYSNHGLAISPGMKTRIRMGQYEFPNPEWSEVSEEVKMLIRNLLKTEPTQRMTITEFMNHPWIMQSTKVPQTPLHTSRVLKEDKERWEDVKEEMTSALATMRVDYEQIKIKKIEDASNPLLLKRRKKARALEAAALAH
UniProt Q9BUB5: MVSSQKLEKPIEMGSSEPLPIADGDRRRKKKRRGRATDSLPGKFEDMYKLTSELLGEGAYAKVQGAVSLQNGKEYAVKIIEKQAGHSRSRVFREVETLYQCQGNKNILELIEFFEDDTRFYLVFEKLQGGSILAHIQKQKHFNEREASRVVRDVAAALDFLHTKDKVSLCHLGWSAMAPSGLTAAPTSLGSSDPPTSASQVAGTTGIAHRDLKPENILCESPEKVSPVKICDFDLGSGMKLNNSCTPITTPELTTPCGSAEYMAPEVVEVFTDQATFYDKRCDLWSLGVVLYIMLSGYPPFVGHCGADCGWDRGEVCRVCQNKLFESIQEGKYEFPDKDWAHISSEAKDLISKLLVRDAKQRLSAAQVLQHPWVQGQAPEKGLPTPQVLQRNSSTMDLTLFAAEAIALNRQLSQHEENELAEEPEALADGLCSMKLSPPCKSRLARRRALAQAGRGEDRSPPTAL
UniProt Q16620, whole entry, looked up: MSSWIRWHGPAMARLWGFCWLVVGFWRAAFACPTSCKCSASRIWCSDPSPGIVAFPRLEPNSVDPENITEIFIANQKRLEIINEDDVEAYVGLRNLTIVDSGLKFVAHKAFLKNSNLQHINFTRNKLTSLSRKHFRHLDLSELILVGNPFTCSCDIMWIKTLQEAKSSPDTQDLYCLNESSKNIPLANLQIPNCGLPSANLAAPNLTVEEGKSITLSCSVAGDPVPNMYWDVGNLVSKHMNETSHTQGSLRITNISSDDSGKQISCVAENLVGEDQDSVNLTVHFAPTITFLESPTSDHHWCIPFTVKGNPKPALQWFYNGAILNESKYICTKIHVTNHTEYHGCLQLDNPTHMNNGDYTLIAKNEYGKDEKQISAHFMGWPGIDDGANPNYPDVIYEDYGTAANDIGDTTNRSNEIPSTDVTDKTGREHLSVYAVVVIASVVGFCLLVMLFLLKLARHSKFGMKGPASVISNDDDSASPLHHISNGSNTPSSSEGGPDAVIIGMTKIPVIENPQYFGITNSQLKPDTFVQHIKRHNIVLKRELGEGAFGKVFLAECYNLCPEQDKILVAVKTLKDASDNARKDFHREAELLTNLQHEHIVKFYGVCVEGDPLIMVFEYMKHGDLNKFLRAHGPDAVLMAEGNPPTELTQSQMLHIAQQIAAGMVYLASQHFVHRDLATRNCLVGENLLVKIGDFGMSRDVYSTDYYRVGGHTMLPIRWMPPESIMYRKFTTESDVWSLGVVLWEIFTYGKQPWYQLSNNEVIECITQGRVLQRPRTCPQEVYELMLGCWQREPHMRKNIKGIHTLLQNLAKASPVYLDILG

Experiments:
Assay in all cases: number of time points (of 5) at which kinase-Nluc abundance scored as decreased, DMSO-normalised (count); higher = more persistent destabilization
Details in all cases: K562; 2-18 h
LMTK2 = LMTK2 (UniProt Q8IWU2)
LYN = LYN (UniProt P07948)
MAP2K1 = MAP2K1 (UniProt Q02750)
MAP2K2 = MAP2K2 (UniProt P36507)
MAP4K2 = MAP4K2 (UniProt Q12851)
MAPK1 = MAPK1 (UniProt P28482)
MAPK4 = MAPK4 (UniProt P31152)
MAPKAPK2 = MAPKAPK2 (UniProt P49137)
MKNK1 = MKNK1 (UniProt Q9BUB5)
NTRK2 = NTRK2 (UniProt Q16620)

Row | Structure (SMILES) | number of time points (LMTK2) | number of time points (LYN) | number of time points (MAP2K1) | number of time points (MAP2K2) | number of time points (MAP4K2) | number of time points (MAPK1) | number of time points (MAPK4) | number of time points (MAPKAPK2) | number of time points (MKNK1) | number of time points (NTRK2)
1 | OCCC#Cc1nc(-c2ccc(F)cc2)c(-c2ccncc2)n1CCCc1ccccc1 (2.5 µM) | 0 | 0 | 0 | 0 | 0 | 0 | 0 | 0 | 0 | 0
2 | C[C@@]12CCc3occc3[C@H]1CC[C@@]13C[C@@H](CC[C@H]12)[C@@](O)(CO)C3 [Cafestol] (10 µM) | 0 | 0 | 0 | 0 | 0 | 0 | 0 | 0 | 0 | 0
3 | CC(=O)c1cc(O)ccc1O [2,5-Dihydroxyacetophenone] (10 µM) | 0 | 0 | 0 | 0 | 0 | 0 | 0 | 0 | 0 | 0
4 | Cn1cc(-c2cn3nccc3c(-c3cnn([C@]4(CC#N)C[C@@H](C#N)C4)c3)n2)cn1 (10 µM) | 0 | 0 | 0 | 0 | 0 | 0 | 0 | 0 | 0 | 0
5 | C=CC(=O)N[C@H]1CCOC[C@H]1Nc1ncc2cc(-c3c(Cl)c(OC)cc(OC)c3Cl)ccc2n1 [Fisogatinib] (10 µM) | 0 | 0 | 0 | 0 | 0 | 0 | 0 | 0 | 0 | 0
6 | COc1ncc2cc(C(=O)Nc3cc(C(=O)NCc4cccc(Cl)c4)ccc3Cl)c(=O)[nH]c2n1 (2.5 µM) | 0 | 0 | 0 | 0 | 0 | 0 | 0 | 0 | 0 | 0
7 | O=C(CCc1ccc2n1[B-](F)(F)[N+]1=C(c3ccc[nH]3)C=CC1=C2)ON1C(=O)CCC1=O [Py-BODIPY-NHS ester] (2.5 µM) | 0 | 0 | 0 | 0 | 0 | 0 | 0 | 0 | 0 | 0
8 | CCCCNc1ncc2c(-c3ccc(CN4CCN(C)CC4)cc3)cn([C@H]3CC[C@H](O)CC3)c2n1 [UNC2025 (hydrochloride)] (2.5 µM) | 0 | 0 | 0 | 0 | 0 | 0 | 0 | 0 | 0 | 0
9 | CS(=O)(=O)N1CCc2c(-c3cnc(N)nc3)nc(N3CCOCC3)nc21 (10 µM) | 0 | 1 | 0 | 0 | 0 | 0 | 0 | 0 | 0 | 0
10 | CC(C)(C)c1ccc(C(=O)Nc2cn3cc(-n4ccnc4)ccc3n2)cc1 (10 µM) | 0 | 0 | 0 | 0 | 0 | 0 | 0 | 0 | 0 | 0
11 | Cc1cccc(Cn2nc(C)c3c(NC(=O)c4csc5c(N)ncnc45)cccc32)n1 (10 µM) | 0 | 0 | 0 | 0 | 0 | 0 | 0 | 0 | 0 | 0
12 | CC(C)(O)c1cc(Nc2cc(Oc3cn(C4CC4)nc3C3CCOCC3)ccn2)ccn1 (10 µM) | 0 | 0 | 0 | 0 | 0 | 0 | 0 | 0 | 0 | 0
13 | CNS(=O)(=O)C[C@H]1CC[C@H](N(C)c2[nH]cnc3nccc2-3)CC1 [Oclacitinib (maleate)] (10 µM) | 0 | 0 | 0 | 0 | 0 | 0 | 0 | 0 | 0 | 0
14 | CNC(=O)c1nnc(NC(=O)C2CC2)cc1Nc1cccc(-c2ncn(C)n2)c1OC [Deucravacitinib] (10 µM) | 0 | 0 | 0 | 0 | 0 | 0 | 0 | 0 | 0 | 0
15 | C[C@H](Nc1ccc2c(c1)OCCn1cc(N3C(=O)OC[C@H]3C(F)F)nc1-2)C(N)=O (10 µM) | 0 | 0 | 0 | 0 | 0 | 0 | 0 | 0 | 0 | 0
16 | C[C@@H]1CN(CC(=O)Nc2ccc3c(c2)Cc2cccc(-c4cc(=O)cc(N5CCOCC5)o4)c2S3)C[C@H](C)O1 (2.5 µM) | 0 | 0 | 0 | 0 | 0 | 0 | 0 | 0 | 0 | 0

Row | Structure (SMILES) | number of time points (LMTK2) | number of time points (LYN) | number of time points (MAP2K1) | number of time points (MAP2K2) | number of time points (MAP4K2) | number of time points (MAPK1) | number of time points (MAPK4) | number of time points (MAPKAPK2) | number of time points (MKNK1) | number of time points (NTRK2)
17 | O=C(CC(c1ccccc1)C(C(=O)O)C(=O)O)c1ccc(C(F)(F)F)cc1 (stereo not given) (10 µM) | 0 | 0 | 0 | 0 | 0 | 0 | 0 | 0 | 0 | 0
18 | Cc1ncc(F)c(Nc2n[nH]c3c2CN(C(=O)N2C[C@@H](C)N(CC4CCOCC4)C[C@@H]2C)C3(C)C)n1 (10 µM) | 0 | 0 | 0 | 0 | 0 | 0 | 0 | 0 | 0 | 0
19 | Cc1c(C(=O)Nc2ccc(Oc3ccnc4cc(OCC(C)(C)O)ccc34)c(F)c2)c(=O)n(-c2ccccc2)n1C [Ningetinib Tosylate] (10 µM) | 0 | 0 | 0 | 0 | 0 | 0 | 1 | 0 | 0 | 0
20 | CC(=O)Nc1nc(C)c(-c2ccc(Cl)c(S(=O)(=O)NCCO)c2)s1 (10 µM) | 0 | 0 | 0 | 0 | 0 | 0 | 0 | 0 | 1 | 0
21 | Cc1ccc(Nc2c(C(N)=O)cnc3cc(-c4ccncc4)ccc23)cc1C [cFMS Receptor Inhibitor II] (10 µM) | 0 | 0 | 0 | 0 | 0 | 0 | 0 | 0 | 0 | 0
22 | Cc1ccc(CNC(=O)N2CCC[C@]3(CCN(Cc4ccc(Cl)c(Cl)c4)C3)C2)cc1 (10 µM) | 0 | 0 | 0 | 0 | 0 | 0 | 0 | 0 | 0 | 0
23 | COC(=O)c1cc2c(OC(C)C)cc(OC(C)C)cc2[nH]1 (2.5 µM) | 0 | 0 | 0 | 0 | 0 | 0 | 0 | 0 | 0 | 0
24 | O=C(Nc1nc2cccc(-c3ccc(CN4CCS(=O)(=O)CC4)cc3)n2n1)C1CC1 [Filgotinib] (2.5 µM) | 0 | 0 | 0 | 0 | 0 | 0 | 0 | 0 | 0 | 0
25 | C=CC(=O)Nc1cccc(Oc2nc(Nc3ccc(N4CCN(C)CC4)cc3)ncc2Cl)c1 (2.5 µM) | 0 | 0 | 0 | 0 | 0 | 0 | 0 | 0 | 0 | 0
26 | O=C1NCCSc2c1sc1ccc(O)cc21 (2.5 µM) | 4 | 0 | 0 | 0 | 0 | 0 | 0 | 0 | 0 | 0
27 | COc1c(OCCCN2CCOCC2)ccc2c3n(c(=NC(=O)c4cnc(N)nc4)nc12)CCN3 [Copanlisib (dihydrochloride)] (10 µM) | 2 | 2 | 0 | 0 | 0 | 1 | 1 | 0 | 4 | 0
28 | CC(C)n1cnnc1-c1cccc(NC(=O)c2cc3ccc(F)cc3[nH]2)n1 (2.5 µM) | 3 | 0 | 0 | 0 | 0 | 0 | 0 | 0 | 3 | 1
29 | C1=N/C2=N/c3ccc(OCCN4CCCC4)c(c3)COC/C=C/COCc3cccc(c3)C(=C1)N2 [Pacritinib] (2.5 µM) | 0 | 0 | 0 | 0 | 0 | 0 | 0 | 0 | 0 | 0
30 | Cc1ccc(-c2csc(Cn3nc(CC4OCCCO4)c4ccccc4c3=O)n2)cc1 (10 µM) | 0 | 0 | 0 | 0 | 0 | 0 | 0 | 0 | 0 | 0
31 | C=CC(=O)Nc1cccc(Oc2nc(Nc3ccc(N4CCN(C)CC4)cc3)nc3ccsc23)c1 [Olmutinib] (2.5 µM) | 0 | 0 | 0 | 0 | 0 | 0 | 0 | 0 | 0 | 0
32 | CC(C)=CCC/C(C)=C/CC/C(C)=C/CSc1ccccc1C(=O)O [Salirasib] (10 µM) | 0 | 0 | 0 | 0 | 0 | 0 | 0 | 0 | 0 | 0

Looked up by compound from above (2):
Row | Structure (SMILES) | number of time points (LMTK2) | number of time points (LYN) | number of time points (MAP2K1) | number of time points (MAP2K2) | number of time points (MAP4K2) | number of time points (MAPK1) | number of time points (MAPK4) | number of time points (MAPKAPK2) | number of time points (MKNK1) | number of time points (NTRK2)
25 | C=CC(=O)Nc1cccc(Oc2nc(Nc3ccc(N4CCN(C)CC4)cc3)ncc2Cl)c1 (2.5 µM) | 0 | 0 | 0 | 0 | 0 | 0 | 0 | 0 | 0 | 0
27 | COc1c(OCCCN2CCOCC2)ccc2c3n(c(=NC(=O)c4cnc(N)nc4)nc12)CCN3 [Copanlisib (dihydrochloride)] (10 µM) | 2 | 2 | 0 | 0 | 0 | 1 | 1 | 0 | 4 | 0
